This passage reports log2 fold change results from the supplement of paper PMC12819154, “High-throughput peptide-centric local stability assay extends protein–ligand identification to membrane proteins, tissues and bacteria” (Nature Structural & Molecular Biology, 2025).

Chains of the proteins cited; added tags and fusions are not shown. Lines headed by an entry give the natural chain unless they say otherwise; changes in a name come on top.
UniProt P35659: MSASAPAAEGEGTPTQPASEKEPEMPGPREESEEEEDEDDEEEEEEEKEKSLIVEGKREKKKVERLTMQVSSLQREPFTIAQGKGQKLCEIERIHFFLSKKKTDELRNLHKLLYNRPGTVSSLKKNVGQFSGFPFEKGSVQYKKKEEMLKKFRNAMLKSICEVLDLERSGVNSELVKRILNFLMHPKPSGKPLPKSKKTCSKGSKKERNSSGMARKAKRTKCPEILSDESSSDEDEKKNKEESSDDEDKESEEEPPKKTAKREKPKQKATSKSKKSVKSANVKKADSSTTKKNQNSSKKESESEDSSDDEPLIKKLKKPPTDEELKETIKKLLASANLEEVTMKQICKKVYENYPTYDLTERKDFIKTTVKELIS
UniProt P36542: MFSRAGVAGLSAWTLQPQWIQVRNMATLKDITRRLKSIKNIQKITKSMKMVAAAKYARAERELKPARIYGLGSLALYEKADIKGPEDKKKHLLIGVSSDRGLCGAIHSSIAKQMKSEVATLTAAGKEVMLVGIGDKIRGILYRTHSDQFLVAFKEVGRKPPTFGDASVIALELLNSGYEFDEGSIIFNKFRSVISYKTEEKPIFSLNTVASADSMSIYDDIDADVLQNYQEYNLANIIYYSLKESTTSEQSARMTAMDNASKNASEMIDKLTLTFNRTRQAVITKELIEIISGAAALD
UniProt P38936, whole entry: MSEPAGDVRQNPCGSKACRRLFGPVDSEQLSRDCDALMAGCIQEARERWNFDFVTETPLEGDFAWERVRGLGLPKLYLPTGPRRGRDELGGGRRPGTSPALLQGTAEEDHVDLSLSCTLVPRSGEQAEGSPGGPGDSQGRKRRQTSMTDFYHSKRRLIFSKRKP
UniProt P29401: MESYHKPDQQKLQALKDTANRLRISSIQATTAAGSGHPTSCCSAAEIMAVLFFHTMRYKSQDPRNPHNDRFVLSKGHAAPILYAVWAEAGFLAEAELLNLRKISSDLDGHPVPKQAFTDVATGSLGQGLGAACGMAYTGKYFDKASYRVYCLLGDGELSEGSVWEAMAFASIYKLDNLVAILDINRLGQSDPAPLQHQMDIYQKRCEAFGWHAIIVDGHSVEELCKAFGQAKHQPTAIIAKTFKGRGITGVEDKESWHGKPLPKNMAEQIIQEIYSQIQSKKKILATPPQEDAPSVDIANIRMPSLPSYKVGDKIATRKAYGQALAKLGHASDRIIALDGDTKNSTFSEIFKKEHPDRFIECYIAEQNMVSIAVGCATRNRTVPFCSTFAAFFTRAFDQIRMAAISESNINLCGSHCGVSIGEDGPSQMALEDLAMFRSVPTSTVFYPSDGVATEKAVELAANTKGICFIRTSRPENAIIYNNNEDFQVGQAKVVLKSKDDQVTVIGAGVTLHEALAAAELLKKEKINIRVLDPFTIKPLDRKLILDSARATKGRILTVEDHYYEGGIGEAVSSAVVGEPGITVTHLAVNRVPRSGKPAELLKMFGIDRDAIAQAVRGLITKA
UniProt P36404: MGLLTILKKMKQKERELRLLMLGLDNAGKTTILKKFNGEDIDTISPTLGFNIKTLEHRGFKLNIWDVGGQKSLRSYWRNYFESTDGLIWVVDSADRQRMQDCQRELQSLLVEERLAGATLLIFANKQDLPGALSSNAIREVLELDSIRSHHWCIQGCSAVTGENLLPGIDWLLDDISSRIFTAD
UniProt P40261: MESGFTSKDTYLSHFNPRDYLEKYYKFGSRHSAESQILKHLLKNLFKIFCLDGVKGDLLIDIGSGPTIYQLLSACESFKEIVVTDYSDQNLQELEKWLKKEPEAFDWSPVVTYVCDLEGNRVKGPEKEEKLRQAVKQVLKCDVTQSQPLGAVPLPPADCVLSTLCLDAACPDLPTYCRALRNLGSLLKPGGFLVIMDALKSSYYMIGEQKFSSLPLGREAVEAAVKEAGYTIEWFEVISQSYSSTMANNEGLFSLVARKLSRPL
UniProt P35613: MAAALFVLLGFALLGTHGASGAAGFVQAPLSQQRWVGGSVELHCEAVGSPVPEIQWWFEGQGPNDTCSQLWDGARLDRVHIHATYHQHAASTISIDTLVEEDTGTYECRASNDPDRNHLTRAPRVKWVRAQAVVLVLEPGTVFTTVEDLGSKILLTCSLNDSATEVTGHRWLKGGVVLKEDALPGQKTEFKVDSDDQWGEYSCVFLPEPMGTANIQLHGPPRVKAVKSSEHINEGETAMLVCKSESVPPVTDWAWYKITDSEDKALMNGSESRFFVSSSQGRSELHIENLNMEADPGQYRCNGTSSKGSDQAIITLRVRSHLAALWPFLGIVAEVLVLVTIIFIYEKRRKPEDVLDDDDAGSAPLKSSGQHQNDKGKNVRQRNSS
UniProt P38405, whole entry: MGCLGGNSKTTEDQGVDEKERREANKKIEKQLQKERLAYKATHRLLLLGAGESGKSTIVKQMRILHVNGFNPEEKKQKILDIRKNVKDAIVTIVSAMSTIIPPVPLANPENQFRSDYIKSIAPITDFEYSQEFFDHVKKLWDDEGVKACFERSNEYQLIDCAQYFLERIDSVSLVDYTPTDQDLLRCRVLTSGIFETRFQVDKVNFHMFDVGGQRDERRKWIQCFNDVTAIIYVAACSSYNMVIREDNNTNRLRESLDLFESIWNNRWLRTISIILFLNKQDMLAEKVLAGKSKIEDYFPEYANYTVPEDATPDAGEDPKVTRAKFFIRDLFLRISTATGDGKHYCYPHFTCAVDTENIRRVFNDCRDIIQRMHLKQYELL
UniProt P43358: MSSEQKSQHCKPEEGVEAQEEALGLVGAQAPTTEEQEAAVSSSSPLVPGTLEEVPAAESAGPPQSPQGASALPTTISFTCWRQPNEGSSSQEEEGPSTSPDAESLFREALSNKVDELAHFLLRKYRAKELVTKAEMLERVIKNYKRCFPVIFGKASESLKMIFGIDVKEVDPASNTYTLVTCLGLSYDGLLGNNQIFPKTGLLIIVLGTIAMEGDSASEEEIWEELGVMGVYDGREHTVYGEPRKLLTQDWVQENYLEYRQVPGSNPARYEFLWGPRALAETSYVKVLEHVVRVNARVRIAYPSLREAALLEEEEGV
UniProt P42892: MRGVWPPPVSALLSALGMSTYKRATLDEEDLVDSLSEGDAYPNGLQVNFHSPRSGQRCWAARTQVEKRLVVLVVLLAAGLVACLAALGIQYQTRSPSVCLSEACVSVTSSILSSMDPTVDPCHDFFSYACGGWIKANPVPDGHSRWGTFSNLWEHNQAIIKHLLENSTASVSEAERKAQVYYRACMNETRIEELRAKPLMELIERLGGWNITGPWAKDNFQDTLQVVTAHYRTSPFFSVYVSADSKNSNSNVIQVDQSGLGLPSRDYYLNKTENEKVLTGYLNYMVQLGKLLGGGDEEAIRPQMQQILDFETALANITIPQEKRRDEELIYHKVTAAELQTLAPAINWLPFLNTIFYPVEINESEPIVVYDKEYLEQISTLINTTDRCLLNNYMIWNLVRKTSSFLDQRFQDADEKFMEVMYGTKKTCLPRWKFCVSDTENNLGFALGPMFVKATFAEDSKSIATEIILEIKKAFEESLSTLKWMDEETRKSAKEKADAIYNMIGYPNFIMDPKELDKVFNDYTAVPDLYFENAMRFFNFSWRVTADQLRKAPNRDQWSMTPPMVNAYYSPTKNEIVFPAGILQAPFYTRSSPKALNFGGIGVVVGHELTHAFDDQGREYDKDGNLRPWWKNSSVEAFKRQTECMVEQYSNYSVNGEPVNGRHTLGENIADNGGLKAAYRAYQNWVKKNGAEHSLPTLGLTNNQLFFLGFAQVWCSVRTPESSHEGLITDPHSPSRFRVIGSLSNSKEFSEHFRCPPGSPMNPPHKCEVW
UniProt P35269, whole entry: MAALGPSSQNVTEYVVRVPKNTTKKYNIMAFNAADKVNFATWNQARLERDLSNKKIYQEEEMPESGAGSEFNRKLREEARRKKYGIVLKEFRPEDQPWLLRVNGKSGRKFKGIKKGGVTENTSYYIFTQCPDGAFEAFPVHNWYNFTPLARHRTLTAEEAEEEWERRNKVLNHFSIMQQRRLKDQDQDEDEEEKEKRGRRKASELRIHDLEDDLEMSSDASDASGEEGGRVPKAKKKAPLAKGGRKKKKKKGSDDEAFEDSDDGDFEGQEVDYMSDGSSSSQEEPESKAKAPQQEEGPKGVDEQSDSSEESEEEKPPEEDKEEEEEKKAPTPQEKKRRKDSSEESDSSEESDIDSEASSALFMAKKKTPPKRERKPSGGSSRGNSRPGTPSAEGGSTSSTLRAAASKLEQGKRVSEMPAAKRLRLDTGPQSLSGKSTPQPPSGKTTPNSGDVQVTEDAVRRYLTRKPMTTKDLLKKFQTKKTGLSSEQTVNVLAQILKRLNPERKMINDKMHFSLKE
UniProt P40925: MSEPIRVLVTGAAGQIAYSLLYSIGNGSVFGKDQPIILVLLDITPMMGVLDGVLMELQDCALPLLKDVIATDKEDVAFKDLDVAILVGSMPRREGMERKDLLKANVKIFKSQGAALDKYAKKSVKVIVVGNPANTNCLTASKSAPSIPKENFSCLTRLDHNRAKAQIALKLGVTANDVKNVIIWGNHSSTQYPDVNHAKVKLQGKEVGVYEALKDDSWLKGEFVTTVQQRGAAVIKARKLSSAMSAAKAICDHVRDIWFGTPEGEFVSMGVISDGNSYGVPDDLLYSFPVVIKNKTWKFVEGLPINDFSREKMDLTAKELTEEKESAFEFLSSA
UniProt P43490: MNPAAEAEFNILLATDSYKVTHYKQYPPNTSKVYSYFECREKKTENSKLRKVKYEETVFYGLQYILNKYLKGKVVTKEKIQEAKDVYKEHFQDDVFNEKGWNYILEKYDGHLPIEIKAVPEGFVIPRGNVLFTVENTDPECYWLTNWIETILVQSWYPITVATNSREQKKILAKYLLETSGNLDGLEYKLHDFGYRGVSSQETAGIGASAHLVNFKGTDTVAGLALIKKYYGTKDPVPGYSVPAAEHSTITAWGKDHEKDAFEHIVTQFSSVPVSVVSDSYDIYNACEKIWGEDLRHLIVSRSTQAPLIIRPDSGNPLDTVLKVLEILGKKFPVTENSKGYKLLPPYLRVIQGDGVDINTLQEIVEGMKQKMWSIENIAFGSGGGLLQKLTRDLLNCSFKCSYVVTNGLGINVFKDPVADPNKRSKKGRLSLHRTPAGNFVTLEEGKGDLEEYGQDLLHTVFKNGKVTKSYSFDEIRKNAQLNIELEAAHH
UniProt P32314: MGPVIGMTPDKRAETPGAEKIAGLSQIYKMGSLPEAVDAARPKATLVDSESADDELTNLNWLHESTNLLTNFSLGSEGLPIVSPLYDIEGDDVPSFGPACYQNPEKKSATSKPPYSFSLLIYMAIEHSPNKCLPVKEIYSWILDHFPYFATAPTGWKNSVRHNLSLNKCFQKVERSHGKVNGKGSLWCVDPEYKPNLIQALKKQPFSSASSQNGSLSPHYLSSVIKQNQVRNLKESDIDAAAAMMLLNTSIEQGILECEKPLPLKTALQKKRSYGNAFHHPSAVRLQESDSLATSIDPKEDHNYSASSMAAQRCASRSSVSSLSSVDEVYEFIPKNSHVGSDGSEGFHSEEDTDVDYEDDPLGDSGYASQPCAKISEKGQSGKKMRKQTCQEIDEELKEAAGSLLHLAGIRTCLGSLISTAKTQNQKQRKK
UniProt P35754: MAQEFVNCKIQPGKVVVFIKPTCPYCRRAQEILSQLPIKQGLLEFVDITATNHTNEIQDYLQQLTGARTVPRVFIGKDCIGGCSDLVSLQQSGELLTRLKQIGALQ
UniProt P35712: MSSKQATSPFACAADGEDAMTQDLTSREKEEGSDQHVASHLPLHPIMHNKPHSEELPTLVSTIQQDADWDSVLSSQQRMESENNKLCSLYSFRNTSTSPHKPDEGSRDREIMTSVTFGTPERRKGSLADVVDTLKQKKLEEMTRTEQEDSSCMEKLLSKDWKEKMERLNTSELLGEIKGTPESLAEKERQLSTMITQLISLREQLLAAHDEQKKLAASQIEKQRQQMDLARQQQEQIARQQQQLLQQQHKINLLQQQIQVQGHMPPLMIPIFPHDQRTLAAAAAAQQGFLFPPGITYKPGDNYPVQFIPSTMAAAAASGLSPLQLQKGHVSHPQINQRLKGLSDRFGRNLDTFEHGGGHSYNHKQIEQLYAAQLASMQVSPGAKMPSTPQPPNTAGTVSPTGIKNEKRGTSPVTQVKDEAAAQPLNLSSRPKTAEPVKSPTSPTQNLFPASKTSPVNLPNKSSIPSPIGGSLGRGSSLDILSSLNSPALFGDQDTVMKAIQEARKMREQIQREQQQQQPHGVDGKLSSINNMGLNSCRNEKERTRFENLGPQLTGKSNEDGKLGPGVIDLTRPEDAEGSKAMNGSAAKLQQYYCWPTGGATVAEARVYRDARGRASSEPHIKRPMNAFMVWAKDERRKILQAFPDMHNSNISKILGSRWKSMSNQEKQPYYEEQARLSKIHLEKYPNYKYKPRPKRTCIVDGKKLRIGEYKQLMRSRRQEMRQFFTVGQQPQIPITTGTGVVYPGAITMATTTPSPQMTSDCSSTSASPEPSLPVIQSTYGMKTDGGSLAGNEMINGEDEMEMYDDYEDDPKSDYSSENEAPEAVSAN

The list shows a part of the results. Small differences around the control level are noise.

Compound in this assay: Cc1nc(Nc2ncc(C(=O)Nc3c(C)cccc3Cl)s2)cc(N2CCN(CCO)CC2)n1 [dasatinib]
Put plainly: log2 fold change of tryptic peptide abundance, ligand vs vehicle (limited proteolysis) (log2 ratio); higher = more trypsin-susceptible (destabilized). To be noted: ligand concentration: 5 uM; sample: K562 cleared lysate.
With “MCM4 (peptide sequence: THIDVIHYR, peptide start residue: 414) (UniProt P33991)”, the log2 fold change was -0.566. Turning to “DEK (peptide sequence: KPPTDEELKETIK, peptide start residue: 318) (UniProt P35659)”, the log2 fold change came out at 0.304. Regarding “MYH11 (peptide sequence: DLGEELEALK, peptide start residue: 1136) (UniProt P35749)”, the log2 fold change stood at 0.1.

“UniProt P36542 (peptide sequence: HLLIGVSSDR, peptide start residue: 91)”: the log2 fold change was -0.251. The value for “UniProt P38936 (peptide sequence: LYLPTGPR, peptide start residue: 76)” was -0.422; that for “TKT (peptide sequence: MPSLPSYK, peptide start residue: 303) (UniProt P29401)” was 0.177. “RFC2 (peptide sequence: VCDEPHPLLVK, peptide start residue: 254) (UniProt P35250)”: the log2 fold change is 0.518.

With “DLST (peptide sequence: AKPAEAPAAAAPK, peptide start residue: 153) (UniProt P36957)”, the log2 fold change turned out to be 0.0299. The figure for “ARL2 (peptide sequence: LAGATLLIFANK, peptide start residue: 115) (UniProt P36404)” is -1.22; for “NNMT (peptide sequence: FSSLPLGR, peptide start residue: 211) (UniProt P40261)” it is 0.154.

“CDKN2C (peptide sequence: TGFAVIHDAAR, peptide start residue: 69) (UniProt P42773)”: the log2 fold change is -0.653. The figure for “BSG (peptide sequence: RKPEDVLDDDDAGSAPLK, peptide start residue: 349) (UniProt P35613)” is -0.269; for “RBM34 (peptide sequence: NGAQIADGFR, peptide start residue: 263) (UniProt P42696)” it is 0.135; for “UBA7 (peptide sequence: HSYLHLAENYLIR, peptide start residue: 883) (UniProt P41226)” it is -0.0823. The figure for “SHMT2 (peptide sequence: QACTPMFR, peptide start residue: 341) (UniProt P34897)” is 0.146; for “UniProt P38405 (peptide sequence: FQVDKVNFHMFDVGGQR, peptide start residue: 855)” it is -0.108. In the case of “NKTR (peptide sequence: GDKLSDPCSSR, peptide start residue: 386) (UniProt P30414)”, the log2 fold change was 0.567.

Regarding “MAGEA4 (peptide sequence: ALAETSYVK, peptide start residue: 270) (UniProt P43358)”, the log2 fold change is -0.129. Consider “ECE1 (peptide sequence: FMEVMYGTK, peptide start residue: 417) (UniProt P42892)”, for which the log2 fold change is -0.218. For “CPOX (peptide sequence: ATSLGRPEEEEDELAHR, peptide start residue: 110) (UniProt P36551)”, the log2 fold change was -0.0789. The figure for “RPL4 (peptide sequence: LRVDKAAAAAAALQAK, peptide start residue: 349) (UniProt P36578)” is 0.161; for “HIBADH (peptide sequence: LLGAASGLRYWSR, peptide start residue: 7) (UniProt P31937)” it is 0.0432; for “NF2 (peptide sequence: AQITEEEAK, peptide start residue: 388) (UniProt P35240)” it is 0.242.

In the case of “ACADSB (peptide sequence: YAIGSLNEGR, peptide start residue: 285) (UniProt P45954)”, the log2 fold change is -0.0666. The value for “UniProt P45983 (peptide sequence: LFPDVLFPADSEHNKLK, peptide start residue: 274)” was 0.126; that for “NCAPD3 (peptide sequence: LCLQHEDLAKK, peptide start residue: 930) (UniProt P42695)” was -0.501. “PRDX3 (peptide sequence: NGGLGHMNIALLSDLTK, peptide start residue: 150) (UniProt P30048)”: the log2 fold change amounted to 0.213. For “PPP2R1A (peptide sequence: VLAMSGDPNYLHR, peptide start residue: 486) (UniProt P30153)”, the log2 fold change was -0.155. The figure for “RPL9 (peptide sequence: RDFNHINVELSLLGK, peptide start residue: 36) (UniProt P32969)” is 0.137. Take “EPS15 (peptide sequence: LDSPDPFK, peptide start residue: 794) (UniProt P42566)”: the log2 fold change was found to be 0.273. In the case of “GTF2F1 (peptide sequence: TLTAEEAEEEWERR, peptide start residue: 154) (UniProt P35269)”, the log2 fold change was 0.0726.

Regarding “MDH1 (peptide sequence: ENFSCLTR, peptide start residue: 150) (UniProt P40925)”, the log2 fold change is 0.227. As for “NAMPT (peptide sequence: GVSSQETAGIGASAHLVNFK, peptide start residue: 197) (UniProt P43490)”, the log2 fold change came to 0.317. Turning to “UniProt P32314 (peptide sequence: EDHNYSASSMAAQR, peptide start residue: 300)”, the log2 fold change was -0.243. For the target “GLRX (peptide sequence: AQEILSQLPIK, peptide start residue: 29) (UniProt P35754)”, the log2 fold change was -0.599. Turning to “SOX6 (peptide sequence: QQMDLAR, peptide start residue: 225) (UniProt P35712)”, the log2 fold change was found to be 0.398.

Regarding “COL18A1 (peptide sequence: ELLREETGAALKPR, peptide start residue: 675) (UniProt P39060)”, the log2 fold change was 0.669.
